The match of structure and compound is tentative.
Legend:
[1] = target: Casein kinase 1 epsilon (CSKN1E) (Homo sapiens, UniProt P49674); experiment: Casein kinase assay, CK1 epsilon; assay type: biochemical; conditions: read-out: CK1 epsilon Assay; recombinant CSKN1E 30 nM, ATP 10 μM
[2] = system: Hedgehog signaling pathway; experiment: Hedgehog reporter assay (Gli Reporter - NIH3T3 Cell Line); assay type: cell-based; conditions: read-out: HH Assay; Gli reporter NIH3T3 cells, murine SHH stimulation, 24 h
[3] = target: Casein kinase 1 delta (CSKN1D) (Homo sapiens, UniProt P48730); experiment: Casein kinase assay, CK1 delta; assay type: biochemical; conditions: read-out: CK1 delta Assay; recombinant CSKN1D 5 nM, ATP 10 μM

Sequences of proteins named here, by UniProt entry; tags and fusion partners are left off.
UniProt P49674, whole entry: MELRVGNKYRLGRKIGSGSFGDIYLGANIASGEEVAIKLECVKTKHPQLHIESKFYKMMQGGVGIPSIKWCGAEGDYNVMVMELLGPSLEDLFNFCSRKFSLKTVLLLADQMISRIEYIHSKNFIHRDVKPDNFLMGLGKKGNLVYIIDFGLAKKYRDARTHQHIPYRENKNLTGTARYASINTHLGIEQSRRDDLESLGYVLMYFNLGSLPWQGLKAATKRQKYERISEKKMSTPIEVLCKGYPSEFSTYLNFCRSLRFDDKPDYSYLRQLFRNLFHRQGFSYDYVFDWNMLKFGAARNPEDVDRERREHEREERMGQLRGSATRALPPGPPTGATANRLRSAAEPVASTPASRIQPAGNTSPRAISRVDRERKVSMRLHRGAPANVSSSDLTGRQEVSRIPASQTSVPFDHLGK
UniProt P48730, whole entry: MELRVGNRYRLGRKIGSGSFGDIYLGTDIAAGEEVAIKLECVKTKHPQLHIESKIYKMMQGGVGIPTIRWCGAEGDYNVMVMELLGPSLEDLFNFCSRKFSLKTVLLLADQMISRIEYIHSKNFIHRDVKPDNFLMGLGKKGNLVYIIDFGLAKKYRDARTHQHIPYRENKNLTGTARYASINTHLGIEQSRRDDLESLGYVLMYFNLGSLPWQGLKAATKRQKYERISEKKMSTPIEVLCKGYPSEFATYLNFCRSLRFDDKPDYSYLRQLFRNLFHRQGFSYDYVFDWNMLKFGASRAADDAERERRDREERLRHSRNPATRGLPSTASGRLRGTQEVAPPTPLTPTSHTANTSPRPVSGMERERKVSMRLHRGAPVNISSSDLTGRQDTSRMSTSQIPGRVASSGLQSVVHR

IC50 [1]: 200 to 1000 nM | IC50 [2]: 1000 to 15000 nM | IC50 [3]: < 200 nM
Compound: Cc1c(C(=O)Nc2nc3cc4c(cc3[nH]2)OC(F)(F)O4)cnn1-c1ccc(F)cc1

— US20170240556A1, “BIFLUORODIOXALANE-AMINO-BENZIMIDAZOLE KINASE INHIBITORS FOR THE TREATMENT OF CANCER, AUTOIMMUNEINFLAMMATION AND CNS DISORDERS” (4SC DISCOVERY GMBH, priority 2012, published 2017)
